Earlier results in US7645752B2, “Sulfonyl substituted 1H-indoles as ligands for the 5-hydroxytryptamine receptors” (Wyeth LLC, priority 2006, dated 2010).
For at least one compound, name, drawing or mass did not settle the structure.

Test system: 5-HT6 receptor subtype
Conditions: background statement; cited from earlier work

CN1CCN(C2=Nc3cc(Cl)ccc3Nc3ccccc32)CC1 [Clozapine]
affinity for the 5-HT6 receptor subtype: high affinity
